We go through 6 compounds from patent US20230242544A1, “QUINAZOLINE COMPOUNDS, PREPARATION METHODS AND USES THEREOF” (INVENTISBIO CO., LTD., priority 2020, published 2023).

Sequences of proteins named here, by UniProt entry; tags and fusion partners are left off. Residues count along the entry.
UniProt P01116, whole entry G12D: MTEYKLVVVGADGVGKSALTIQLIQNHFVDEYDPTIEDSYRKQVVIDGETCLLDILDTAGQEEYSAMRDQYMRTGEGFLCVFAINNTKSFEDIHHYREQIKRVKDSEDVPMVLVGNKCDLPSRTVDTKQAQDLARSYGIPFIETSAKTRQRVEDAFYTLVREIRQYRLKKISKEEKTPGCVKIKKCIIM
UniProt P01116, 1-188 isoform 2 G12D: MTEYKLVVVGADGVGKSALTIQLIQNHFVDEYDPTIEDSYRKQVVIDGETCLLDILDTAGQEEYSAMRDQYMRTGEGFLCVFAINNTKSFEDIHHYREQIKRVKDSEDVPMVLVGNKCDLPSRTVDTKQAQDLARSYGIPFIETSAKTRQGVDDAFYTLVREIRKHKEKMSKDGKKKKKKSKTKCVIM

Like-named read-outs stand apart in the source and are kept apart here. The match of structure and compound is tentative.

Test [1] has as its target Ba/F3_KRAS^G12D cells (Homo sapiens, UniProt P01116, G12D, cells depend on it). Kind of test: Ba/F3 KRAS G12D cell proliferation assay (CellTiter-Glo). For orientation: In ATP-based viability assays light output follows the ATP content of the culture.
Test [2] concerns the target recombinant human KRAS^G12D protein (Homo sapiens, UniProt P01116, G12D). Kind of test: Temperature-dependent Fluorescence (TdF) KRAS G12D protein binding assay. The settings on record: read-out: TdF Kd, 6 μM KRAS^G12D protein, 10 μM compound, Sypro Orange, Kd calculated from the fluorescent shift.
[3] abbreviates: read-out: BaF3_KRAS^G12D IC50, treated for 3 days, cell-titer Glo, cell growth inhibition, tested form: 3TFA.
Where [4] appears, read: read-out: BaF3_KRAS^G12D IC50, treated for 3 days, cell-titer Glo, cell growth inhibition.

In the case of `CCc1c(F)ccc2cc(O)cc(-c3c(C#N)cc4c(N5CC6CCC(C5)N6)nc(OC[C@@]56CCCN5C[C@H](F)C6)nc4c3F)c12` (single isomer, unassigned), the GI50 in test [1] (setting [3]) was under 500 nM.

Usually Kd stands for the free concentration of one partner at which half of the binding sites on the other are occupied at equilibrium, for simple one-to-one binding. As to `C#Cc1c(F)ccc2cc(O)cc(-c3c(F)cc4c(N5CC6CCC(C5)N6)nc(OC[C@@]56CCCN5C[C@H](F)C6)nc4c3F)c12`, in test [1] (setting [3]), the GI50 is under 500 nM. Further, the Kd in test [2] (tested form: 3TFA) is under 500 nM.

`CN1CCC[C@H]1COc1nc(N2C[C@@H]3C[C@H]2CN3)c2cc(Cl)c(-c3cc(O)cc4cccc(Cl)c34)c(F)c2n1`: the GI50 in test [1] (read-out: BaF3_KRAS^G12D IC50, treated for 3 days, cell-titer Glo, cell growth inhibition, tested form: 0.74 formate) was 500 to 5000 nM. In addition, the dissociation constant Kd in test [2] (tested form: 0.74 formate) is over 5000 nM.

Turning to `CN1CCC[C@H]1COc1nc(N2CCNC3CC32)c2cc(Cl)c(-c3cc(O)cc4cccc(Cl)c34)c(F)c2n1` (some centres unmarked), the GI50 in test [1] (setting [4]) is 500 to 5000 nM. The dissociation constant Kd in test [2] is 500 to 5000 nM.

Take `N#Cc1cc2c(N3CC4CCC(C3)N4)nc(OC[C@@]34CCCN3C[C@H](F)C4)nc2c(F)c1-c1c(C(F)(F)F)ccc2[nH]ncc12` (relative stereo): in test [1] (setting [4]), the GI50 was 500 to 5000 nM. In addition, the Kd in test [2] is 500 to 5000 nM.

On to `CN1CCC[C@H]1COc1nc(N2C[C@H]3C[C@@H]2CN3)c2cc(Cl)c(-c3cc(O)cc4cccc(Cl)c34)c(F)c2n1`, for which, in test [1] (read-out: BaF3_KRAS^G12D IC50, treated for 3 days, cell-titer Glo, cell growth inhibition, tested form: 0.36 formate), the GI50 was in the range of 500 to 5000 nM. Moreover, the equilibrium dissociation constant (Kd) in test [2] (tested form: 0.36 formate) is over 5000 nM.
